Values from PubChem BioAssay AID1259425 (University of Nebraska Medical Center, 2018)

Screen: 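Compare each knockdown with KSR1 silencing using changes in marker transcripts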 (primary screen)
System: HCT116 human colon cancer cells
Knock-down reagent: siRNA pool against human genes, 50 nM siRNA
Detection: 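After 50 nM siRNA pool, branched-DNA assay measures six marker transcripts per well, minus blank, normalised to the geometric mean of two housekeeping transcripts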
Scale: BNIP3L mRNA: higher = more BNIP3L transcript after knockdown; NDRG1 mRNA: higher = more NDRG1 transcript after knockdown; BNIP3 mRNA: higher = more BNIP3 transcript after knockdown; ALDOC mRNA: higher = more ALDOC transcript after knockdown; ACSL5 mRNA: higher = more ACSL5 transcript after knockdown
Shown is one part, drawn at random, of about 14,000 reagents tested. Not stated in the record: the time to read-out.

The first 3 records as a preview:
gene	BNIP3L mRNA, set 1	NDRG1 mRNA, set 1	BNIP3 mRNA, set 1	ALDOC mRNA, set 1	ACSL5 mRNA, set 1
CDC42EP1 (CDC42 effector protein 1)	0.139	0.45	0.333	0.037	0.161
WNK2 (WNK lysine deficient protein kinase 2)	0.0464	0.126	0.225	0.00799	0.086
ACER3 (alkaline ceramidase 3)	0.0573	0.216	0.405	0.0311	0.156

The listing, from the first entry:
gene	BNIP3L mRNA, set 1	NDRG1 mRNA, set 1	BNIP3 mRNA, set 1	ALDOC mRNA, set 1	ACSL5 mRNA, set 1
CDC42EP1 (CDC42 effector protein 1)	0.139	0.45	0.333	0.037	0.161
WNK2 (WNK lysine deficient protein kinase 2)	0.0464	0.126	0.225	0.00799	0.086
ACER3 (alkaline ceramidase 3)	0.0573	0.216	0.405	0.0311	0.156
MCRIP2 (MAPK regulated corepressor interacting protein 2)	0.17	0.159	0.273	0.107	0.249
BAG5 (BAG cochaperone 5)	0.0494	0.0819	0.148	0.00849	0.142
FXYD6 (FXYD domain containing ion transport regulator 6)	1.43	5.09	2.88	0.808	0.0988
MAP3K2 (mitogen-activated protein kinase kinase kinase 2)	0.0661	0.155	0.225	0.0182	0.134
MAP3K10 (mitogen-activated protein kinase kinase kinase 10)	0.173	0.347	0.389	0.0143	0.609
TRIM35 (tripartite motif containing 35)	0.158	0.249	0.274	0.0169	0.0832
TNFAIP6 (TNF alpha induced protein 6)	0.142	0.158	0.368	0.0174	0.154
TMTC1 (transmembrane O-mannosyltransferase targeting cadherins 1)	0.375	0.579	0.378	0.0851	0.578
ORMDL2 (ORMDL sphingolipid biosynthesis regulator 2)	0.187	0.17	0.582	0.0587	0.204
ATP5PD (ATP synthase peripheral stalk subunit d)	0.0685	0.296	0.3	0.0181	0.145
ZNF304 (zinc finger protein 304)	0.136	0.477	0.235	0.0441	0.129
CLDN17 (claudin 17)	0.214	0.116	0.642	0.0315	0.14
EXOC4 (exocyst complex component 4)	0.0453	0.141	0.24	0.0296	0.191
KRT38 (keratin 38)	0.0878	0.0832	0.139	0.019	0.104
ID2 (inhibitor of DNA binding 2)	0.121	0.256	0.742	0.0716	0.179
RHBDL2 (rhomboid like 2)	0.0506	0.266	0.273	0.0176	0.236
MTBP (MDM2 binding protein)	0.052	0.0767	0.306	0.0117	0.105
TMEM131L (transmembrane 131 like)	0.107	0.197	0.326	0.0178	0.151
OR5K1 (olfactory receptor family 5 subfamily K member 1)	0.0482	0.139	0.404	0.0219	0.082
P2RX5 (purinergic receptor P2X 5)	0.169	0.353	0.244	0.0168	0.314
XAGE1B (X antigen family member 1B)	0.118	0.18	0.205	0.0509	0.0435
FOSL2 (FOS like 2, AP-1 transcription factor subunit)	0.0914	0.0877	0.248	0.00829	0.204
PGAM2 (phosphoglycerate mutase 2)	0.0838	0.191	0.284	0.0402	0.197
HPCAL1 (hippocalcin like 1)	0.0923	0.114	0.228	0.01	0.108
VPS26C (VPS26 endosomal protein sorting factor C)	0.0922	0.126	0.289	0.0222	0.123
P4HB (prolyl 4-hydroxylase subunit beta)	0.0785	0.189	0.278	0.0107	0.0986
GNGT1 (G protein subunit gamma transducin 1)	0.0709	0.202	0.295	0.0798	0.258
HS3ST4 (heparan sulfate-glucosamine 3-sulfotransferase 4)	0.243	0.537	0.521	0.0492	0.397
DPF3 (double PHD fingers 3)	0.0751	0.074	0.283	0.0103	0.0583
DLK2 (delta like non-canonical Notch ligand 2)	0.181	0.821	0.499	0.0999	0.442
SPAG4 (sperm associated antigen 4)	0.087	0.218	0.251	0.0391	0.156
CCND1 (cyclin D1)	0.272	0.438	0.313	0.0295	0.351
MT-ND3 (mitochondrially encoded NADH dehydrogenase 3)	0.123	0.452	0.253	0.0237	0.0916
C7 (complement C7)	0.163	0.185	0.406	0.0482	0.301
CYRIB (CYFIP related Rac1 interactor B)	0.121	0.0657	0.272	0.0121	0.236
BBC3 (BCL2 binding component 3)	0.226	0.133	0.311	0.0183	0.133
EFTUD2 (elongation factor Tu GTP binding domain containing 2)	0.13	0.368	0.202	0.0199	0.127
GABRG2 (gamma-aminobutyric acid type A receptor subunit gamma2)	0.0466	0.138	0.235	0.04	0.215
DDHD2 (DDHD domain containing 2)	0.122	0.284	0.367	0.0786	0.117
PARG (poly(ADP-ribose) glycohydrolase)	0.0931	0.375	0.335	0.0469	0.191
POLR2B (RNA polymerase II subunit B)	0.0777	0.598	0.365	0.0179	0.224
FCGBP (Fc gamma binding protein)	0.119	0.405	0.237	0.0143	0.15
CEP89 (centrosomal protein 89)	0.225	0.285	0.328	0.0397	0.213
ITIH4 (inter-alpha-trypsin inhibitor heavy chain 4)	0.104	0.125	0.266	0.0392	0.121
GLS (glutaminase)	0.152	0.339	0.343	0.0178	0.211
SAV1 (salvador family WW domain containing protein 1)	0.0592	0.154	0.372	0.0101	0.169
MYBL2 (MYB proto-oncogene like 2)	0.21	0.234	0.29	0.00691	0.242
ZNF41 (zinc finger protein 41)	0.232	0.221	0.362	0.0482	0.332
TMEM186 (transmembrane protein 186)	0.461	0.541	0.728	0.0588	0.656
SYCP1 (synaptonemal complex protein 1)	0.131	0.106	0.289	0.0291	0.123
TAPBPL (TAP binding protein like)	0.0755	0.153	0.358	0.0478	0.183
MTCH2	0.234	0.981	0.6	0.0449	0.436
ZBTB39 (zinc finger and BTB domain containing 39)	0.19	0.348	0.355	0.0181	0.136
DCTN5 (dynactin subunit 5)	0.134	0.263	0.24	0.0417	0.238
PSMD6 (proteasome 26S subunit, non-ATPase 6)	0.165	0.526	0.331	0.134	0.137
LUM (lumican)	0.19	0.188	0.603	0.0192	0.118
CRYBA2 (crystallin beta A2)	0.107	0.305	0.308	0.0185	0.259
MGST2 (microsomal glutathione S-transferase 2)	0.0922	0.117	0.252	0.0108	0.119
BTNL8 (butyrophilin like 8)	0.271	0.36	0.478	0.0982	0.22
SDF4 (stromal cell derived factor 4)	0.083	0.0854	0.28	0.0161	0.0983
